Reference: US20190360030

What was measured:
[1] = molecular target: UvsX(C) (Bacteriophage T4) (UniProt P04529); assay: activity assay; conditions: supports amplification with Sizer2, gp32(N), Klenow and PEG; purified recombinant protein; protein details: C-terminal His tag; label: 5'-biotin; single-stranded DNA
[2] = molecular target: Nfo (endonuclease IV) (Escherichia coli) (UniProt P0A6C1); assay: enzyme reaction in vitro; conditions: tetrahydrofuran abasic residue at n (position 25); THF probe cut and extended only with amplified target in RPA mix; 10 mM Mg-acetate; products seen by 30 min at 12 nM probe; purified recombinant protein; label: 5'-biotin, 3'-digoxygenin; single-stranded DNA

## CTCACTATACCTCAGCATCATGATTGGTGAAGGTCCGGCGGCAC [Tester3bio]
[1]
  activity on this sequence: active

## CATGATTGGATGAATAAGCTGCAGTGATTAAAGGAAAC [THF-Probe 1]
[2]
  activity on this sequence: active

For some assays here: Construct, isoform or probe ends are uncertain for at least one entry.
